Source: article PMC8494447
These are yes or no findings as the source states them, for the method shown. In cells and extracts the contact can be indirect. Binding calls can cover weak binding; strength is not graded here.

Chains of the proteins cited; added tags and fusions are not shown. Lines headed by an entry give the natural chain unless they say otherwise; changes in a name come on top.
UniProt Q13546: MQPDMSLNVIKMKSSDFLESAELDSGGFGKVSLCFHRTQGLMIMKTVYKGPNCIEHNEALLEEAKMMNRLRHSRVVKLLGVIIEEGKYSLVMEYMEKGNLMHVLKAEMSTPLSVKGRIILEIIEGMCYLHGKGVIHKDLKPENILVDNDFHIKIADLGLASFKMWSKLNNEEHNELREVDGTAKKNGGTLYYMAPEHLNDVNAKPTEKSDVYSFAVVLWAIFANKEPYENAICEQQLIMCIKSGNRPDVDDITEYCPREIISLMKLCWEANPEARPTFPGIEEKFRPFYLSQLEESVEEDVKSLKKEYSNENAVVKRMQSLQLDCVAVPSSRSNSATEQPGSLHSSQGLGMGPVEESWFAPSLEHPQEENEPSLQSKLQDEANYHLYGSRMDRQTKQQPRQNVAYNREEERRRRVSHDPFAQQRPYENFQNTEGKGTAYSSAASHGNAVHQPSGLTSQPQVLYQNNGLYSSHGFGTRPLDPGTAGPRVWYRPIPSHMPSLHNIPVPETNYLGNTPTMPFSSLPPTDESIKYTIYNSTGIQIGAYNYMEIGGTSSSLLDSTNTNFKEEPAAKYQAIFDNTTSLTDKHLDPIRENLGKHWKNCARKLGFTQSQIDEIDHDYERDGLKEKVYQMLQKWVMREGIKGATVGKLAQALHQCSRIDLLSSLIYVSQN
UniProt P19438: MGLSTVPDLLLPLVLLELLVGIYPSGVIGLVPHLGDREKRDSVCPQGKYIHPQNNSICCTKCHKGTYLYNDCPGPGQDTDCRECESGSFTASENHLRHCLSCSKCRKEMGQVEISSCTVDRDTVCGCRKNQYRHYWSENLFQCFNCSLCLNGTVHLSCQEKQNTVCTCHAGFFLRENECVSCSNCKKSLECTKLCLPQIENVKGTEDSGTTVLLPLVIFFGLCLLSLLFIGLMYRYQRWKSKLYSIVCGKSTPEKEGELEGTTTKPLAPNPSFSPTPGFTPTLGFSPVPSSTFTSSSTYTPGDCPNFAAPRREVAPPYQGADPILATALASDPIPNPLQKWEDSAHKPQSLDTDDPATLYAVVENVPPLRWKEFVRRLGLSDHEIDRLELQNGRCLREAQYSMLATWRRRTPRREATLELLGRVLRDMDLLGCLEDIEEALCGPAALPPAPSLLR
UniProt Q13490: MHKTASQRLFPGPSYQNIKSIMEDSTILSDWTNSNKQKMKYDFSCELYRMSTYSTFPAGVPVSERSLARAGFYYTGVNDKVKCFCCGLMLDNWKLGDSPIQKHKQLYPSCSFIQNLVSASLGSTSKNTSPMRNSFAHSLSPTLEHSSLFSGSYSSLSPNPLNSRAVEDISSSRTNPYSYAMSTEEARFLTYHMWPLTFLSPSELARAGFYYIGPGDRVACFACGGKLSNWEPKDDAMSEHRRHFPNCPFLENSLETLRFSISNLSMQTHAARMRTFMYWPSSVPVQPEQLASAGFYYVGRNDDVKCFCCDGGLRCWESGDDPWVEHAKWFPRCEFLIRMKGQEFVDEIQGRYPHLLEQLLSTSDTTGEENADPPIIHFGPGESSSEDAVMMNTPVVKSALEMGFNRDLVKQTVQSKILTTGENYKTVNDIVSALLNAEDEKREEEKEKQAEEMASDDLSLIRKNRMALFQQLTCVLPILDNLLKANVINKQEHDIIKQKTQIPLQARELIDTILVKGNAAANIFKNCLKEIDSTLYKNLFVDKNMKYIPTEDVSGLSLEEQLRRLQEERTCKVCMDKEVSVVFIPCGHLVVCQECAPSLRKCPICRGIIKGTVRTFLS
UniProt P48723: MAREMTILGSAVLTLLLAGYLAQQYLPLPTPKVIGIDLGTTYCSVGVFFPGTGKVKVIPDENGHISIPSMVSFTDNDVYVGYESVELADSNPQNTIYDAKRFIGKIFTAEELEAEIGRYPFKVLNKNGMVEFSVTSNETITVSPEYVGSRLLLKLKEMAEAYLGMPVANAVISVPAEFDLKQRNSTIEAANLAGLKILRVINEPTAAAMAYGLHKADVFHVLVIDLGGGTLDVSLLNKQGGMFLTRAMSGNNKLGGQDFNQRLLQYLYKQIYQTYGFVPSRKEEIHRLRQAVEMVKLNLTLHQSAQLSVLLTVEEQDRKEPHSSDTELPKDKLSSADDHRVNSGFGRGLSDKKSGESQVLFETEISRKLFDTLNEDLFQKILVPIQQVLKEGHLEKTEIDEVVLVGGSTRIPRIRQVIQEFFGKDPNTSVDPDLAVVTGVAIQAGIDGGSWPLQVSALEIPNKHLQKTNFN

What was measured:
[1] = target: RIP1 (transfected, tag not told) (UniProt Q13546); experiment: co-IP; HEK293T transiently transfected, 24 h, with or without TNFα (10 ng/ml) for the indicated time; IP with anti-Flag, 4 h at 4°C; IP lysis buffer (150 mM NaCl, 20 mM tris-HCl pH 7.5, 0.5% Triton X-100, 0.5% NP-40); Western blot
[2] = target: TNFR1 (transfected, tag not told) (UniProt P19438); experiment: as above
cIAP1 = cIAP1 (UniProt Q13490); experiment: as above
GST-HSPA13 = GST-HSPA13 (UniProt P48723); experiment: pull-down; purified GST-HSPA13 with in vitro translated protein, 2 h in GST-binding buffer (150 mM NaCl, 50 mM tris-HCl pH 7.5, 0.5% NP-40); Western blot; only the target purified

In the case of “HSPA13 (transfected, tag not told) (from UniProt P48723)”, the binding [1] is reported as “binds”, the binding [2] is reported as “binds” and the binding (cIAP1) is reported as “binds weakly”.
For “in vitro translated RIP1 (from UniProt Q13546 1-671)”, the binding (GST-HSPA13) was “binds”.
With “in vitro translated TNFR1 (from UniProt P19438 1-455) (receptor)” the binding (GST-HSPA13) was “binds”.
